Results reported in patent US6576256B2, “Treatment of patients at elevated cardiovascular risk with a combination of a cholesterol-lowering agent, an inhibitor of the renin-angiotensin system, and aspirin” (priority 2001, dated 2003).
At least one structure is not confirmed: it was looked up by name or label, or the drawing left a doubt.

Test system: subjects who are at elevated cardiac risk (systemic lupus erythematosus)
Experiment: double-blind, placebo-controlled five-year study of cardiovascular events in subjects at elevated cardiac risk
Format: in vivo, human
Settings: Group 2: usual medical care plus 40 mg pravastatin daily, oral; at completion of five-year study; SLE subjects

CC[C@H](C)C(=O)O[C@H]1C[C@H](O)C=C2C=C[C@H](C)[C@H](CC[C@@H](O)C[C@@H](O)CC(=O)O)[C@H]21 [pravastatin]
cardiovascular events compared with Group 1 (usual care plus daily placebo): fewer cardiovascular events
